The experiment deals with BDF1 mice, P388 leukemia ip, median survival T/C. Put plainly: NCI In Vivo Anticancer Drug Screen. Data for tumor model P388 Leukemia (intraperitoneal) in B6D2F1 (BDF1) mice. Conditions: T/C endpoint: median survival time, higher T/C = longer survival. Put shortly:
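Antitumour effect was judged in vivo: survival in drug-treated mice, normalised to that of vehicle-dosed controls, gives the reported T/C.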

Where [1] appears, read: dose: 200.0 mg/kg/injection, schedule: Q04DX003 (ip), vehicle: water.
[2] abbreviates: dose: 400.0 mg/kg/injection, schedule: Q04DX003 (ip), vehicle: water.
Where [3] appears, read: dose: 40.0 mg/kg/injection, schedule: Q01DX009 (ip), vehicle: saline.
The mark [4] stands for this setting: dose: 200.0 mg/kg/injection, schedule: Q01DX009 (ip), vehicle: saline with Tween-80.
[5] abbreviates: dose: 100.0 mg/kg/injection, schedule: Q01DX005 (ip), vehicle: saline with Tween-80.
[6] abbreviates: dose: 50.0 mg/kg/injection, schedule: Q04DX003 (ip), vehicle: saline with Tween-80.
Where [7] appears, read: dose: 50.0 mg/kg/injection, schedule: Q01DX009 (ip), vehicle: saline with Tween-80.
[8] abbreviates: dose: 100.0 mg/kg/injection, schedule: Q01DX009 (ip), vehicle: saline with Tween-80.
The mark [9] stands for this setting: dose: 1.71 mg/kg/injection, schedule: Q04DX003 (ip), vehicle: saline.
[10] abbreviates: dose: 18.0 mg/kg/injection, schedule: Q01DX009 (ip), vehicle: saline.

The list shows only some results of the screen, not a fair sample: it is rich in T/C values a quarter to a half above the control, in often repeated tests (any T/C) and in doses without a T/C. Other doses and runs of a compound stand elsewhere. T/C gives the treated animals as a percentage of the vehicle group. Some entries give survivors of the animals treated and no T/C: the source files T/C as zero there, which appears to mark a toxic dose or a test without result, not a measured value. Some doses without a T/C left all or most animals alive at the check, yet need not have been tolerated: survival well below the control is almost never listed, so the zero probably covers shortened survival too. Counts of survivors are from the toxicity check (mostly the fifth day) where no day follows; animals may have died later. Schedules are NCI's codes, read here as Q, the interval in days (D) or hours (H), X, the number of doses. Signs of the kind (2×) say how often a value occurs here. Some entries hold several experiments; the results are listed from low to high. Where survival is the endpoint, this PubChem deposit counts one and a half times the control or more as active, and values a quarter to a half above the control carry no call in these data; other NCI protocols may use other cut-offs. Some T/C values are followed by the survivors on the day toxicity was checked, most often the fifth; without a count, all were alive then. Starred links: 1 amine or outer side, 2 acyl side, 3 side chain; linkers in the order of their positions; H or OH if unused. Positions of bridges follow the written chain, without caps; N, C: chain ends. Non-standard residues stand in square brackets, D forms with d. Residues, ends and D or L forms follow the SMILES beside them. Chains are numbered I, II in the order given. Actinocin(9to1) = Cc1c2oc3c(C)ccc(C(=O)[*:1])c3nc-2c(C(=O)[*:2])c(N)c1=O; NMeV = CN[CH](C(=O)O)C(C)C; Sar = CNCC(=O)O

For the compound `FC(F)(F)c1nc[nH]c1C(F)(F)F`, the survivor count is, setting by setting: (dose: 100.0 mg/kg/injection, schedule: Q01DX009 (ip), vehicle: water) 0 of 6; (dose: 200.0 mg/kg/injection, schedule: Q01DX009 (ip), vehicle: water) 0 of 6; under setting [1], 1 of 6; under setting [2], 0 of 6.

On to `CC(=O)Oc1cc2cnc3c4cc(OC(C)=O)c(OC(C)=O)cc4ccc3c2cc1OC(C)=O`, for which the survivor count (dose: 10.0 mg/kg/injection, schedule: Q01DX009 (ip), vehicle: saline) is given as 5 of 6; the survivor count (dose: 20.0 mg/kg/injection, schedule: Q01DX009 (ip), vehicle: saline) was 6 of 6; the survivor count under setting [3] was 5 of 6 and 6 of 6; the survivor count (dose: 80.0 mg/kg/injection, schedule: Q01DX009 (ip), vehicle: saline) is 6 of 6.

Consider `CC(C)CNS(=O)(=O)c1ncnc2nc[nH]c12`, for which the survivor count under setting [4] is recorded as 1 of 6.

Consider `COc1cc2cc(c1Cl)NC(=O)/C=C/C(C)=C/[C@H](C)[C@@H]1C[C@@](O)(NC(=O)O1)[C@H](OC)C=C/C=C(\C)C2`, for which the survivor count (dose: 12.5 micrograms/kg/injection, schedule: Q01DX009 (ip), vehicle: saline + alcohol) was 6 of 6.

For `COC(=O)C(Cc1cnc2nc(N)nc(N)c2n1)C(=O)OC`, where the note is “dose: 50.0 mg/kg/injection, schedule: Q01DX009 (ip), vehicle: water”, the T/C is 125 % of control.

For the compound `O=C(Nc1cccc(O)c1)C(Cl)=C(Cl)Cl`, the survivor count runs as follows: (dose: 50.0 mg/kg/injection, schedule: Q01DX005 (ip), vehicle: saline with Tween-80) 3 of 5; under setting [5], 1 of 5; (dose: 200.0 mg/kg/injection, schedule: Q01DX005 (ip), vehicle: saline with Tween-80) 1 of 5.

Take `CC(=O)CC(C)=O.CC(=O)CC(C)=O.O.O.[Co]`: the T/C under setting [6] is 126 % of control.

Take `Cc1ccc(CC2NC(=O)NC2=O)cc1` (centres undefined): the T/C (dose: 25.0 mg/kg/injection, schedule: Q01DX009 (ip), vehicle: saline with Tween-80) is 126 % of control. The survivor count under setting [7] is listed as 6 of 6.

Consider `C[n+]1c(-c2ccccc2)c2ccccc2c2ccccc21`, for which the survivor count (dose: 6.0 mg/kg/injection, schedule: Q01DX009 (ip), vehicle: water) was 3 of 6 and the survivor count (dose: 12.0 mg/kg/injection, schedule: Q04DX003 (ip), vehicle: water) is 1 of 6.

As for `CCc1ccc(C(=O)N/N=C(\C)[C@]2(O)Cc3c(O)c4c(c(O)c3[C@@H](OC3CC(N)C(O)C(C)O3)C2)C(=O)c2c(OC)cccc2C4=O)cc1` (some centres undefined), the T/C reads like this: (dose: 1.56 mg/kg/injection, schedule: Q01DX009 (ip), vehicle: water) 131 % of control; (dose: 3.12 mg/kg/injection, schedule: Q01DX009 (ip), vehicle: water) 133 % of control [5 of 6 alive]. Moreover, the survivor count (dose: 25.0 mg/kg/injection, schedule: Q01DX009 (ip), vehicle: water) is 6 of 6 (2×).

On to `CCCCOc1ccc(C(=O)N/N=C(\C)[C@]2(O)Cc3c(O)c4c(c(O)c3[C@@H](OC3CC(N)C(O)C(C)O3)C2)C(=O)c2c(OC)cccc2C4=O)cc1` (some centres undefined), for which the T/C was 125 % of control (dose: 1.0 mg/kg/injection, schedule: Q01DX009 (ip), vehicle: water) and 147 % of control (dose: 4.0 mg/kg/injection, schedule: Q01DX009 (ip), vehicle: water).

As to `COC1CC(N=[N+]=[N-])C(OS(C)(=O)=O)C(C)O1` (centres undefined), the survivor count by setting is: under setting [7], 5 of 6; under setting [8], 5 of 6; under setting [4], 5 of 6; (dose: 400.0 mg/kg/injection, schedule: Q01DX009 (ip), vehicle: saline with Tween-80) 5 of 6.

`c1ccc(C2OC3(CCCCC3)C[N+]23CCCC3)cc1` (centres undefined): the survivor count reads like this: under setting [8], 2 of 6; (dose: 200.0 mg/kg/injection, schedule: Q04DX003 (ip), vehicle: saline with Tween-80) 1 of 6.

For the compound `CCCCCCCC(=O)NN`, the survivor count is recorded as 4 of 6 under setting [1]; 4 of 6 (dose: 400.0 mg/kg/injection, schedule: Q01DX009 (ip), vehicle: other); 6 of 6 under setting [2].

As for `Cc1ncc([N+](=O)[O-])n1CCSC(=N)N`, under “dose: 400.0 mg/kg/injection, schedule: Q04DX003 (ip), vehicle: saline with Tween-80”, the survivor count is 1 of 6.

Take `CC(=O)c1c(O)c(C)c(O)c2c1OC1=CC(=O)C(C(C)=O)C(=O)C12C` (centres undefined): the T/C was 132 % of control (dose: 50.0 mg/kg/injection, schedule: Q01DX009 (ip), vehicle: gum acacia); 130 % of control (dose: 100.0 mg/kg/injection, schedule: Q01DX009 (ip), vehicle: gum acacia); 130 % of control (dose: 118.0 mg/kg/injection, schedule: Q01DX010 (ip), vehicle: saline); 135 % of control (dose: 177.0 mg/kg/injection, schedule: Q01DX010 (ip), vehicle: saline). In addition, the survivor count is listed as 6 of 6 (dose: 200.0 mg/kg/injection, schedule: Q01DX009 (ip), vehicle: gum acacia); 5 of 6 (dose: 266.0 mg/kg/injection, schedule: Q01DX010 (ip), vehicle: saline); 6 of 6 (dose: 400.0 mg/kg/injection, schedule: Q01DX009 (ip), vehicle: gum acacia).

For `COc1ccc(CC2c3cc(OC)c(OC)cc3CCN2C(C)=O)cc1OC` (centres undefined), under setting [5], the survivor count is on record as 5 of 6.

With `CC(C)CCCC(C)C1CCC2C3CC=C4CC([Se][As](C)C)CCC4(C)C3CCC12C` (centres undefined), under setting [4], the T/C was 129 % of control [5 of 6 alive].

For the compound `CCOc1nsc(OCC)n1`, the survivor count (dose: 400.0 mg/kg/injection, schedule: Q01DX001 (ip), vehicle: Klucel (hydroxypropylcellulose) (HPC)) was 5 of 6.

For the compound `COc1ccc2c(c1)CCC1C2=CC(=O)/C1=C\[O-].COc1ccc2c(c1)CCC1C2=CC(=O)/C1=C\[O-].[Cu+2]` (centres undefined), under setting [6], the T/C was 145 % of control.

In the case of `NC(=O)NOCC1NC(=O)C(CONC(N)=O)NC1=O` (centres undefined), the survivor count (dose: 200.0 mg/kg/injection, schedule: Q01DX009 (ip), vehicle: saline) is 6 of 6.

Consider `Cc1c2oc3c(C)ccc(C(=O)NC4C(=O)NC(C(C)C)C(=O)N(C)CC(=O)N(C)CC(=O)N(C)C(C(C)C)C(=O)OC4C)c3nc-2c(C(=O)NC2C(=O)NC(C(C)C)C(=O)N(C)CC(=O)N(C)CC(=O)N(C)C(C(C)C)C(=O)OC2C)c(N)c1=O` (centres undefined) (I: TV[Sar][Sar][NMeV] / II: TV[Sar][Sar][NMeV]; ester I:1-I:C, II:1-II:C; linker I:N-II:N via Actinocin(9to1); configuration not given here), for which the T/C (dose: 750.0 micrograms/kg/injection, schedule: Q04DX003 (ip), vehicle: saline + alcohol) is 133 % of control; the T/C (dose: 1000.0 micrograms/kg/injection, schedule: Q01DX009 (ip), vehicle: saline + alcohol) is 125 % of control; the T/C (dose: 3000.0 micrograms/kg/injection, schedule: Q04DX003 (ip), vehicle: saline + alcohol) was 133 % of control [7 of 8 alive]. Also, the survivor count (dose: 2000.0 micrograms/kg/injection, schedule: Q01DX009 (ip), vehicle: saline + alcohol) was 8 of 8; the survivor count (dose: 6000.0 micrograms/kg/injection, schedule: Q04DX003 (ip), vehicle: saline + alcohol) is 3 of 8 and 5 of 8.

As for `C[n+]1ccc(C#N)c2ccccc21`, the T/C under setting [9] was 125 % of control and the T/C under setting [10] is 127 % of control. Moreover, the survivor count under setting [9] is 6 of 6; the survivor count under setting [10] was 1 of 6; the survivor count (dose: 27.0 mg/kg/injection, schedule: Q01DX009 (ip), vehicle: saline) is on record as 0 of 6; the survivor count (dose: 28.0 mg/kg/injection, schedule: Q01DX009 (ip), vehicle: saline) is on record as 1 of 6; the survivor count (dose: 30.0 mg/kg/injection, schedule: Q04DX003 (ip), vehicle: saline with Tween-80) is on record as 1 of 6; the survivor count under setting [3] was 0 of 6.

These data come from PubChem BioAssay AID328 (DTP/NCI, 2004).
